The results in this text go back to PMC6882859, “Core architecture of a bacterial type II secretion system” (Nature Communications, 2019).

The target of the assay is PulN with C-terminal Flag tag (Klebsiella pneumoniae HS11286). Put plainly: pull-down; two-step affinity chromatography from DDM-solubilised membranes of E. coli co-expressing PulE-StrepII with PulL, PulM and PulN-Flag: StrepTrap, then Flag resin; no glutaraldehyde.

Results are given in words; binding and its absence hold for the method and conditions named. In cells and extracts the contact can be indirect. A result given as binding can be weak or reduced; the word gives no strength.

Consider PulL (from UniProt A0A0H3GNF4), for which the binding result is given as “binds weakly”.

Turning to PulM (from UniProt A0A0H3GMR9), the binding entry was “binds weakly”.
